From patent publication US20100062464A1, “OXIDATIVE CHROMOGENIC COMPOUND OR SALT THEREOF AND PRODUCTION METHOD THEREOF, AND REAGENT COMPOSITION AND TEST INSTRUMENT USING THE SAME” (Terumo Kabushiki Kaisha, priority 2007, published 2010)

Assay: Standard curve from reflection-absorbance, measurement sensitivity (Example 8)
Settings: human blood, hematocrit 40%, 50, 100, 400, 600 mg/dL glucose; lower slope means higher sensitivity; FIG. 4

In the case of `Cc1c(N)c(=O)n(-c2ccc(C(=O)O)cc2)n1C` [CP1, 4-amino-1-(4-carboxyphenyl)-2,3-dimethyl-5-pyrazolone], the “Slopes of the standard curves (measurement sensitivity)” value is reported as “decrease as compared with that of 4-AA”.
With `Cc1c(N)c(=O)n(-c2ccc(S(=O)(=O)O)cc2)n1C` [CP2, 4-amino-1-(4-sulfophenyl)-2,3-dimethyl-5-pyrazolone] the “Slopes of the standard curves (measurement sensitivity)” value was “decrease as compared with that of 4-AA”.
